Reference: US10370364B1, “Substituted chromenes for treatment of fibrosis or non-alcoholic steatohepatitis” (OSTEONEUROGEN INC., priority 2018, dated 2019)

Test: in vitro
Conditions: rat, microsomes

SMILES: CC(C)NCC(O)COc1ccc(CC(N)=O)cc1 (stereo not shown) [Atenolol]
- microsomal CLint: 0.15 µL/min/mg
